{
  "source": "paper PMC7764601",
  "about": "(Molecules, 2020)",
  "origin": "cited, not measured here",
  "molecular_target": "μ opioid receptors",
  "settings": "read-out: receptor affinity (concentration); cited from earlier work",
  "data": [
    {"smiles": "COc1cccc(C2(O)CCCCC2CN(C)C)c1", "note": "(stereo not shown) [tramadol]", "values": [
      {"measurement": "Ki", "result": 2.4, "unit": "nM"}
    ]}
  ]
}
